In paper PMC5225595:
These are yes or no findings as the source states them, for the method shown. In cells and extracts the contact can be indirect. Some entries that bind do so weakly or less than the wild type.

Sequences of proteins named here, by UniProt entry; tags and fusion partners are left off.
UniProt P46940: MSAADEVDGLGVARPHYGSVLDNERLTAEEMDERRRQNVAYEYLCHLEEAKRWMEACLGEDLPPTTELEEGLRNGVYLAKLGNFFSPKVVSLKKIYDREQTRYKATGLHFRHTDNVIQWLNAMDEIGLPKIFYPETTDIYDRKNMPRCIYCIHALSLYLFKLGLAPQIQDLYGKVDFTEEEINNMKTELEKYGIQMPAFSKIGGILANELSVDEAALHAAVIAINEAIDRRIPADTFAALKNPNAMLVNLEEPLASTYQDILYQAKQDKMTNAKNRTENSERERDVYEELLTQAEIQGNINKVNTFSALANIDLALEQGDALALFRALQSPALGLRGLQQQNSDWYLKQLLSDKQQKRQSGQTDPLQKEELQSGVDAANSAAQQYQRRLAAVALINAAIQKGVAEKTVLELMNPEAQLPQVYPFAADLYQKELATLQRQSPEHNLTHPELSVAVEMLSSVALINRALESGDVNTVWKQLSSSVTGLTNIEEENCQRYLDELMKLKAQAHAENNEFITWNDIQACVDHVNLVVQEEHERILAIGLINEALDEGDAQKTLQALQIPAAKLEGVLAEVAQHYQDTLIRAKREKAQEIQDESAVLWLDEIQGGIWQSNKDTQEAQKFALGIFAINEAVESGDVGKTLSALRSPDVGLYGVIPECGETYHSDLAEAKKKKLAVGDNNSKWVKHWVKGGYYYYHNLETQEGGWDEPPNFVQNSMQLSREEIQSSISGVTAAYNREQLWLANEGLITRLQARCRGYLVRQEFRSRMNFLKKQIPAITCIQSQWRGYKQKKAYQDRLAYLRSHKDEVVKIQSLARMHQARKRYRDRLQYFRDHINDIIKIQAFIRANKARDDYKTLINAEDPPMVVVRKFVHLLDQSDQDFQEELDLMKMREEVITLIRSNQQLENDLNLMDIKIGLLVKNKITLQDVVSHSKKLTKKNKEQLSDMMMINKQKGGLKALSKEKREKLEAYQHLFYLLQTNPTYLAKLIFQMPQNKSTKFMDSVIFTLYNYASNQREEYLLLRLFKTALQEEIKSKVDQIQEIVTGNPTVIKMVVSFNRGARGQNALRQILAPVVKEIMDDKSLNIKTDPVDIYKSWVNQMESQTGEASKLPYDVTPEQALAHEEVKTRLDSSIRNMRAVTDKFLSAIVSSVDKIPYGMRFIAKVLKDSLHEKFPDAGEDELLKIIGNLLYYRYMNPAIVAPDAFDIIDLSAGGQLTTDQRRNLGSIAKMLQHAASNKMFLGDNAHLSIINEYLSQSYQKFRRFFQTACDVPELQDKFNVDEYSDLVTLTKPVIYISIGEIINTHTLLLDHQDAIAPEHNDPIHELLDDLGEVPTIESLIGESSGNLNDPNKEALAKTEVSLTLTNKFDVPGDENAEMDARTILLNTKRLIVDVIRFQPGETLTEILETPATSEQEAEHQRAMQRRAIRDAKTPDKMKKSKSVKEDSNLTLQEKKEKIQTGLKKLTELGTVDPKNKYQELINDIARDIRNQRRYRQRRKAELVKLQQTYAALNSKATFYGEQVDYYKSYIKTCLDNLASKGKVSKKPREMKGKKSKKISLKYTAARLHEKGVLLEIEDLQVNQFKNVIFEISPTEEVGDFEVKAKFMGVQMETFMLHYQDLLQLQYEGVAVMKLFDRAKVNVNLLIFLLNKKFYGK
UniProt Q9ULT8: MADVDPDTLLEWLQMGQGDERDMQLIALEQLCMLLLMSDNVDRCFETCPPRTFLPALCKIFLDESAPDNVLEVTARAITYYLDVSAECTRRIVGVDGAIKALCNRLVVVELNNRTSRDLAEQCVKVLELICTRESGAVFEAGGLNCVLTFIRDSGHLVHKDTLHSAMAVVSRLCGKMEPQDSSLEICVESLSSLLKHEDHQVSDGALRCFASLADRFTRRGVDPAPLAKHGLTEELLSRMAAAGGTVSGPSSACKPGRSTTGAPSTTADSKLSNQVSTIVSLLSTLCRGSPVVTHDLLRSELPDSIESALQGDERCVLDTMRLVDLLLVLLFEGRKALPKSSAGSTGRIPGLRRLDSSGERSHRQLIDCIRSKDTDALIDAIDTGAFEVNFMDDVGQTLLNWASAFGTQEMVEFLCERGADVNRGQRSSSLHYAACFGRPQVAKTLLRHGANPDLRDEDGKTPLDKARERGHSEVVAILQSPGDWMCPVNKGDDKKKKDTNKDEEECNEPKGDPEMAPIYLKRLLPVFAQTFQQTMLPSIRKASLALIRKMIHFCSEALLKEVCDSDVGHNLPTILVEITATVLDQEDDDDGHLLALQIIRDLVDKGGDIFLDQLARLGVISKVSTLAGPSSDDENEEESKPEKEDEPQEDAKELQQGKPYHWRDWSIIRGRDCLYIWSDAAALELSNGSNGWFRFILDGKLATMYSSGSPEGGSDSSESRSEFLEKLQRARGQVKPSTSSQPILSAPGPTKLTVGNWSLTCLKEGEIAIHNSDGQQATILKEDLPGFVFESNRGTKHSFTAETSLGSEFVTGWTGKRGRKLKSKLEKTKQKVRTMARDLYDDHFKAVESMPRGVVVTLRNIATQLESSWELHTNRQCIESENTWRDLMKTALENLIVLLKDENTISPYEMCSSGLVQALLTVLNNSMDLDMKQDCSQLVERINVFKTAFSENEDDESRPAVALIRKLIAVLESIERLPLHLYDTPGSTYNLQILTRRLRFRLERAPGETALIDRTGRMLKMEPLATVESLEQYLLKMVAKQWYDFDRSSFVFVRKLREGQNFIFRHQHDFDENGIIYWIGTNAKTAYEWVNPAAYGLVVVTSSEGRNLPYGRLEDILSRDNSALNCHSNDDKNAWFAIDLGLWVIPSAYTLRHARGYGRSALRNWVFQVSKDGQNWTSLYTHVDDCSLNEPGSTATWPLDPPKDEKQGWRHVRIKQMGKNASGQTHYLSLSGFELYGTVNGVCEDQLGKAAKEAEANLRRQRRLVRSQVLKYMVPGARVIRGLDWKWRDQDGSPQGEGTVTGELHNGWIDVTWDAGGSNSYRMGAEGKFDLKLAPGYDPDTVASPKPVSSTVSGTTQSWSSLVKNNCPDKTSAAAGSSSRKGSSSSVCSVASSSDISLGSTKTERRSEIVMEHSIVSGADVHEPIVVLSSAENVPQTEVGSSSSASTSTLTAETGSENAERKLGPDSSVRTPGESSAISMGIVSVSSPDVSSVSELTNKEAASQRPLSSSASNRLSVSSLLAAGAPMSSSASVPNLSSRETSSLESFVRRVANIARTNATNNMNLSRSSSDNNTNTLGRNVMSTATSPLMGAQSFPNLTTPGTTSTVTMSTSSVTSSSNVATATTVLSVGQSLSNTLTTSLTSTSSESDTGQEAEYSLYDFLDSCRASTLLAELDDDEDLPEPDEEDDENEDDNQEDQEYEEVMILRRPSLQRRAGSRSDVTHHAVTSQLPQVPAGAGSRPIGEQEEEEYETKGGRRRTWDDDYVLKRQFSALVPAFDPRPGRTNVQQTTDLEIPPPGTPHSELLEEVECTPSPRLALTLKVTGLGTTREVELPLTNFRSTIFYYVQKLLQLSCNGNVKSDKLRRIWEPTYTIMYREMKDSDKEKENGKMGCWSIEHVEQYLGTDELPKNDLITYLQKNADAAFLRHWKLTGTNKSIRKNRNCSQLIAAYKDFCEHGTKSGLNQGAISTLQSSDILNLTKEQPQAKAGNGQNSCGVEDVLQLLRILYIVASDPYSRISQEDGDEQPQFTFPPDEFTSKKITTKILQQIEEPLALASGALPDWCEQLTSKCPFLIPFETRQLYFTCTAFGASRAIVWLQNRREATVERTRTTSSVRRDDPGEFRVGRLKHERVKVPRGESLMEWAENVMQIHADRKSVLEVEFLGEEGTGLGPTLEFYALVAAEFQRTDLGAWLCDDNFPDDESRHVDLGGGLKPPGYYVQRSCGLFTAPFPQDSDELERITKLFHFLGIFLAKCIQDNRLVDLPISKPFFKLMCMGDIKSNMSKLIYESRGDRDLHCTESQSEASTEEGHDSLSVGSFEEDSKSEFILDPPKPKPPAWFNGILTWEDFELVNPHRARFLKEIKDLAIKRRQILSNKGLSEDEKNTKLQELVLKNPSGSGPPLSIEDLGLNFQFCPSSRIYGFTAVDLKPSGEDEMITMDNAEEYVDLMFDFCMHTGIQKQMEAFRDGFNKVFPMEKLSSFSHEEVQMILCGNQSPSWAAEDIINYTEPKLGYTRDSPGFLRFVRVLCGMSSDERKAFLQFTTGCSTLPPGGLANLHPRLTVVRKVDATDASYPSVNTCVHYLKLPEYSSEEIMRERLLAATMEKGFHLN

Target: GFP-IQGAP1 (UniProt P46940)
Assay: co-IP; lysate of HEK293 cells expressing GFP-IQGAP1, with or without 60 min on fibronectin-coated dishes; IP lysis buffer 20 mM Tris-HCl pH 8.0, 137 mM NaCl, 1% NP40, 2 mM EDTA; precipitated with mouse anti-GFP antibody and protein A/G agarose beads at 4 °C; HECTD1 detected by western blot

binding: binds
Substance: HECTD1 (E3 ubiquitin ligase for inhibin B receptor) (from UniProt Q9ULT8 1-2610) (enzyme)
